This assay has as its target STRIP2, bait of the immunoprecipitation coupled with mass spectrometry (UniProt Q9ULQ0). The experiment in a line: affinity purification with mass spectrometry; immunoprecipitation of STRIP2 against a control sample, silver-stained gel, differential band analysed by tandem mass spectrometry; cells not given.

The chains behind the UniProt entries cited, without tags or fusion partners.
UniProt Q9ULQ0: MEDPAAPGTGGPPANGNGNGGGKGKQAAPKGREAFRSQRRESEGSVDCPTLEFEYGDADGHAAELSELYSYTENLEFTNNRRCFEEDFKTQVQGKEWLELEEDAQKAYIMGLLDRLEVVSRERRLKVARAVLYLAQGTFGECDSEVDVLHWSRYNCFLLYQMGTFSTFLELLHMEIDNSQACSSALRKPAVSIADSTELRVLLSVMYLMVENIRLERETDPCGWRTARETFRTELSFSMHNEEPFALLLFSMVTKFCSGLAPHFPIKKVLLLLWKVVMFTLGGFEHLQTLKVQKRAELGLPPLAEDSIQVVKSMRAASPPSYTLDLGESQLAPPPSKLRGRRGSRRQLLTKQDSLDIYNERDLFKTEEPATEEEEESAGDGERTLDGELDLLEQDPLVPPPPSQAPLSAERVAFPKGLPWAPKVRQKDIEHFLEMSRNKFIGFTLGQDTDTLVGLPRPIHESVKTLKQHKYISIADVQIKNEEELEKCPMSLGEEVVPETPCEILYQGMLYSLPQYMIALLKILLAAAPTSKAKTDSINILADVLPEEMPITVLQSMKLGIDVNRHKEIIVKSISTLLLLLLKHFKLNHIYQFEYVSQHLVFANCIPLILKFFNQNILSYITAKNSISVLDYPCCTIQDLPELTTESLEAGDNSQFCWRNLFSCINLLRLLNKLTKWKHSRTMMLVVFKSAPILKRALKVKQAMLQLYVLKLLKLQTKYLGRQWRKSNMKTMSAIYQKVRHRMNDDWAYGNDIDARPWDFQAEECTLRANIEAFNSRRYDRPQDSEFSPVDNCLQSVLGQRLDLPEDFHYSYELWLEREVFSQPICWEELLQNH
UniProt O00425: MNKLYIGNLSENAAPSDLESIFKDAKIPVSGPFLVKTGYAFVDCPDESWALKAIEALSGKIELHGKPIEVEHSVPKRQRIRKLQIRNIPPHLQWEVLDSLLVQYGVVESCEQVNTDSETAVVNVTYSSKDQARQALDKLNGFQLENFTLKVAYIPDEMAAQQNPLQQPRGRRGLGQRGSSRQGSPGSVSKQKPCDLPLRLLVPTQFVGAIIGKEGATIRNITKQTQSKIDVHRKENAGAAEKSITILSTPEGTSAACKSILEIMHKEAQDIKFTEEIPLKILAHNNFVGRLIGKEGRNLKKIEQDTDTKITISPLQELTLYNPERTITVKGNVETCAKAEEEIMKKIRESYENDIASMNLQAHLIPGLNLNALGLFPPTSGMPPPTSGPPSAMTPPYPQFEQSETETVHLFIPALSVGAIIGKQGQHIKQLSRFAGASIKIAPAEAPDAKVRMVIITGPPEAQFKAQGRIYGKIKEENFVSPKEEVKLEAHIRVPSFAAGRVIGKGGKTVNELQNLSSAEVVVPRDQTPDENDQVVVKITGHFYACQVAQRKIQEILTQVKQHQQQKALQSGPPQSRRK

Results are given in words; binding and its absence hold for the method and conditions named. In cells and extracts the contact can be indirect. These calls come from enrichment with a bait or labelling near it, and not all partners need be listed.

As to “IGF2BP3 found by mass spectrometry in the STRIP2 immunoprecipitate (from UniProt O00425 1-579)”, the binding entry is recorded as “binds”.

(Values after article PMC9837939.)
